Data as given in patent publication US7560610.
Results are given in words; binding and its absence hold for the method and conditions named. For part of these data: In cells and extracts the contact can be indirect. Some binding calls cover weakened binding; strength is not graded here.

Legend:
[1] = target: cyclin A (endogenous, Balb/c-3T3 fibroblasts) (UniProt P51943); assay: immunodepletion of Balb/c-3T3 extracts with p27 antiserum, then cyclin A and p27 immunoblots
[2] = target: cyclin A (endogenous, Balb/c-3T3 fibroblasts) (UniProt P51943); assay: p27 immunoblot of cyclin A immunoprecipitates from Balb/c-3T3 cells treated with antisense or mismatch oligonucleotides
[3] = target: cyclin A (endogenous, Balb/c-3T3 fibroblasts) (UniProt P51943); assay: summary of co-immunoprecipitation and immunodepletion in Balb/c-3T3 cells after mitogen withdrawal
[4] = target: cyclin E (endogenous, Balb/c-3T3 fibroblasts), Q61457; assay: immunodepletion of Balb/c-3T3 extracts with p27 antiserum, then cyclin E and p27 immunoblots; conditions: remark: other sources report otherwise
[5] = target: cyclin E (endogenous, Balb/c-3T3 fibroblasts), Q61457; assay: summary of co-immunoprecipitation and immunodepletion in Balb/c-3T3 cells after mitogen withdrawal; conditions: remark: other sources report otherwise
[6] = target: cyclin E (endogenous, Balb/c-3T3 fibroblasts), Q61457; assay: p27 immunoblot of cyclin E immunoprecipitates from Balb/c-3T3 cells treated with antisense or mismatch oligonucleotides; conditions: remark: other sources report otherwise

Measured: binding

p27Kip1 protein (endogenous murine p27 of Balb/c-3T3 fibroblasts) (from UniProt P46414 1-197)
binds: [1] | [2] | [3]

B1: p27Kip1 protein (endogenous murine p27 of Balb/c-3T3 fibroblasts), P46414 1-197 (protein, UniProt P46414 1-197, looked up)
chain: MSNVRVSNGSPSLERMDARQAEHPKPSACRNLFGPVNHEELTRDLEKHCRDMEEASQRKWNFDFQNHKPLEGRYEWQEVERGSLPEFYYRPPRPPKSACKVLAQESQDVSGSRQAVPLIGSQANSEDRHLVDQMPDSSDNPAGLAEQCPGMRKRPAAEDSSSQNKRANRTEENVSDGSPNAGTVEQTPKKPGLRRQT
binds: [4] | [5] | [6]
